The results in this text go back to publication PMC6019379, “RecA-like domain 2 of DNA-dependent ATPase A domain, a SWI2/SNF2 protein, mediates conformational integrity and ATP hydrolysis” (Bioscience Reports, 2018).

Residue numbers refer to the chain shown, from its start. The exact form of at least one protein or probe is not confirmed. Where a protein sequence is shown, tags need not be part of it.

Common to all, as to test: intrinsic tryptophan fluorescence titration
What all share (conditions): saturating ATP; recombinant protein; protein details: His (Ni-NTA, pET-14b); folded or branched DNA

For data set [1], the target named is T1, ADAAD R592A R812A (Bos taurus (bovine)) (UniProt Q9TTA5).
T1 sequence (looked up, limits assumed): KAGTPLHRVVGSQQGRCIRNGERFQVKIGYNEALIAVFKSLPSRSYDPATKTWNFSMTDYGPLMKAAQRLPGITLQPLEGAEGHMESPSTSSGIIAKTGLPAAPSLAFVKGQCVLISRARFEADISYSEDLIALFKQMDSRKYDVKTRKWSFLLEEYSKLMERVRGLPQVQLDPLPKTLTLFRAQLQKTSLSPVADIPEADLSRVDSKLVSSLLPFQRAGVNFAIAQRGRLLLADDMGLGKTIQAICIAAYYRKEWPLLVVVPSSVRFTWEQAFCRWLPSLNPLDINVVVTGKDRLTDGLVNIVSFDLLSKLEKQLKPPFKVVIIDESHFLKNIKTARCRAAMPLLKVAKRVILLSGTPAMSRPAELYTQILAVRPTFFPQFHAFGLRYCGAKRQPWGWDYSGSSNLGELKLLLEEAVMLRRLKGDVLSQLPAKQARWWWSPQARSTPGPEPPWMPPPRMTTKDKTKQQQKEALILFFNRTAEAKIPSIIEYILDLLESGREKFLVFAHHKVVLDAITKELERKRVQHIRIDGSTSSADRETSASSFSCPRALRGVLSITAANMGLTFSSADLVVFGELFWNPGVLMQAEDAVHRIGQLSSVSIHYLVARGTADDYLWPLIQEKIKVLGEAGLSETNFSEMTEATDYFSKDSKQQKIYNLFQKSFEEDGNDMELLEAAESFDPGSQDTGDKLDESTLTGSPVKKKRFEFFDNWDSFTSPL

The target of data set [2] is T2, ADAAD H594A H814A (Bos taurus (bovine)) (UniProt Q9TTA5).
T2 sequence (looked up, limits assumed): T1 sequence (looked up, limits assumed) with A592R, H594A

The target in data set [3] is T3, ADAAD R595A R815A (Bos taurus (bovine)) (UniProt Q9TTA5).
T3 sequence (looked up, limits assumed): T1 sequence (looked up, limits assumed) with A592R, R595A

A word on the Kd: it is the equilibrium constant for the complex coming apart. With “GCGCAATTGCGCTCGACGATTTTTTAGCGCAATTGCGC [slDNA (stem-loop DNA)]”, the figures for the Kd in data set [1], in data set [2] and in data set [3] were 6.4 nM, 6.6 nM and 7.5 nM, respectively.
